The supplement of paper PMC10663445
Structures can show the parent of a compound that is named as a salt. This is one part of the list. Most values come without repeats; read them as rough.

Test system: hsa-miR-132-3p
Experiment: miR-132-3p level in NGN2-iNs after compound treatment (TMM-normalised, ComBat batch-corrected) (batch-corrected normalised expression (arbitrary units)); higher = higher miR-132-3p expression
Details: 10 µM; 24 h; human iPSC-derived NGN2 neurons (BR43)

Row | Structure (SMILES) | miR-132-3p level in NGN2-iNs
1 | O=c1cc(CN2CCOCC2)occ1OCCCCCSc1ccnc2cc(C(F)(F)F)ccc12 | -0.615
2 | O[C@@H]1CO[C@H]2[C@@H]1OC[C@@H]2O [Isosorbide] | 0.472
3 | CCOc1ccc(Cc2cc([C@@H]3O[C@H](CO)[C@@H](O)[C@H](O)[C@H]3O)ccc2Cl)cc1 [Dapagliflozin] | -0.967
4 | CN(C)CCN1C(=O)c2cccc3cc(N)cc(c23)C1=O [Amonafide] | 0.618
5 | CCN(CCCc1ccccc1)CCCc1ccccc1 [Alverine Citrate] | 0.337
6 | O=C(O)c1ccc(N2C(=O)C(=Cc3ccc(-c4ccc([N+](=O)[O-])cc4)o3)C=C2c2ccccc2)cc1 | -0.647
7 | CC[C@]1(O)C[C@@H]2CN(CCc3c([nH]c4ccccc34)[C@@](C(=O)OC)(c3cc4c(cc3OC)N(C)[C@H]3[C@@](O)(C(=O)OC)[C@H](OC(C)=O)[C@]5(CC)C=CCN6CC[C@]43[C@@H]65)C2)C1 [Vinblastine] | 0.989
8 | O=S(=O)(O)CCSSCCS(=O)(=O)O [Dimesna] | -0.034
9 | CO[C@H]1C(=O)[C@]2(C)[C@@H](OC)C[C@H]3OC[C@@]3(OC(C)=O)[C@H]2[C@H](OC(=O)c2ccccc2)[C@]2(O)C[C@H](OC(=O)[C@H](O)[C@@H](NC(=O)OC(C)(C)C)c3ccccc3)C(C)=C1C2(C)C [Cabazitaxel] | -1.22
10 | Cc1cc(N2CCOCC2)cc2[nH]c(-c3c(NCC(O)c4cccc(Cl)c4)cc[nH]c3=O)nc12 (stereo unspecified) | -0.579
11 | NC(=O)NO [Hydroxyurea] | -0.298
12 | Cc1c(Cn2c(C)nc3c(C(=O)O)cc(N4CCOCC4)cc32)cccc1C(F)(F)F | -0.039
13 | CCCCCCCCCCCCCCCC[N+](C)(C)C [Cetrimonium Bromide (CTAB)] | 0.504
14 | CCCc1nc(C(C)(C)O)c(C(=O)OCc2oc(=O)oc2C)n1Cc1ccc(-c2ccccc2-c2nnn[nH]2)cc1 [Olmesartan Medoxomil] | -0.38
15 | Nc1nccs1 [Aminothiazole] | -0.426
16 | NC(=O)c1cccnc1 [Nicotinamide (Vitamin B3)] | 0.413
17 | CC(C)(Oc1ccc(C2CC2(Cl)Cl)cc1)C(=O)O (stereo unspecified) [Ciprofibrate] | -0.412
18 | Nc1nc(Nc2ccc(S(N)(=O)=O)cc2)nn1C(=O)c1c(F)cccc1F | 0.197
19 | CC(C)c1onc(-c2c(Cl)cccc2Cl)c1COc1ccc(/C=C/c2cccc(C(=O)O)c2)c(Cl)c1 | -0.257
20 | C=CCN1CCCC1CNC(=O)c1cc2nn[nH]c2cc1OC (stereo unspecified) [Alizapride HCl] | 0.0651
21 | NC(=O)[C@@H](CCC(F)(F)F)N(Cc1ccc(-c2ncon2)cc1F)S(=O)(=O)c1ccc(Cl)cc1 | 0.138
22 | N#CC(=C(/N)Sc1ccccc1N)/C(C#N)=C(\N)Sc1ccccc1N | -0.0428
23 | CCCNS(=O)(=O)Nc1ncnc(OCCOc2ncc(Br)cn2)c1-c1ccc(Br)cc1 [Macitentan] | -0.481
24 | Nc1ccc(S(N)(=O)=O)cc1 [Sulfanilamide] | 0.988
25 | CCN1CCC[C@H]1CNC(=O)c1cc(S(N)(=O)=O)ccc1OC [Levosulpiride] | -0.869
26 | COc1ccc(-c2cc3c(C)nc(N)nc3n([C@H]3CC[C@H](OCCO)CC3)c2=O)cn1 | 1.68

Look-ups from above.
For miR-132-3p level in NGN2-iNs, CCCNS(=O)(=O)Nc1ncnc(OCCOc2ncc(Br)cn2)c1-c1ccc(Br)cc1 [Macitentan] is listed with -0.481
For miR-132-3p level in NGN2-iNs, CC[C@]1(O)C[C@@H]2CN(CCc3c([nH]c4ccccc34)[C@@](C(=O)OC)(c3cc4c(cc3OC)N(C)[C@H]3[C@@](O)(C(=O)OC)[C@H](OC(C)=O)[C@]5(CC)C=CCN6CC[C@]43[C@@H]65)C2)C1 [Vinblastine] is listed with 0.989

Next results follow:

Row | Structure (SMILES) | miR-132-3p level in NGN2-iNs
27 | Cn1c(=O)c(F)c(Nc2ccc(I)cc2F)c2c(=O)n(C[C@@H](O)CO)cnc21 | -0.596
28 | CC1=NN(c2ccc(C(=O)O)cc2)C(=O)C1=Cc1ccc(-c2cc(C)c(C)cc2[N+](=O)[O-])o1 | -0.0431
29 | CCOC(=O)c1ccc(C#Cc2ccc3c(c2)C(C)(C)CCS3)nc1 [Tazarotene] | -1.75
30 | CNC(=O)CN1CCC(Oc2cc3c(Nc4cccc(Cl)c4F)ncnc3cc2OC)CC1 [Sapitinib (AZD8931)] | -1.17
31 | Nc1nc(N)nc(-c2cc(Cl)ccc2Cl)n1 [Irsogladine] | -0.2
32 | CCc1c(C(=O)NCCc2ccc(N3CCCCC3)cc2)[nH]c2ccc(Cl)cc12 | 0.258
33 | COc1ccccc1OCCNCC(O)COc1cccc2[nH]c3ccccc3c12 (stereo unspecified) [Carvedilol] | -1.75
34 | CC(C)c1nc(CN(C)C(=O)N[C@H](C(=O)N[C@@H](Cc2ccccc2)C[C@H](O)[C@H](Cc2ccccc2)NC(=O)OCc2cncs2)C(C)C)cs1 [Ritonavir] | -2.85
35 | COc1c(O)cc2c(c1O)[C@@H]1O[C@H](CO)[C@@H](O)[C@H](O)[C@H]1OC2=O [Bergenin] | -0.425
36 | CC(C)[C@H]1CC[C@H](C(=O)N[C@H](Cc2ccccc2)C(=O)O)CC1 [Nateglinide] | -0.266
37 | Nc1cccc(-c2cc3c(Oc4cccc(O)c4)ncnc3[nH]2)c1 | 0.863
38 | COc1ccc(-n2nc(C(N)=O)c3c2C(=O)N(c2ccc(N4CCCCC4=O)cc2)CC3)cc1 [Apixaban] | 2.78
39 | COc1ccc(C(C)=O)c(O)c1 [Paeonol] | 0.966
40 | C[C@@H](O)[C@H]1C(=O)N2C(C(=O)OCOC(=O)C(C)(C)C)=C(SC3CN(C4=NCCS4)C3)[C@H](C)[C@H]12 [Tebipenem Pivoxil] | 0.85
41 | CCCCOc1ccc(OCCCN2CCOCC2)cc1 [Pramoxine HCl] | -0.136
42 | CC1CCc2cc(F)cc3c(=O)c(C(=O)O)cn1c23 (stereo unspecified) [Flumequine] | 0.558
43 | CC(C)C[C@H](NC(=O)CNC(=O)c1cc(Cl)ccc1Cl)B1OC(=O)CC(CC(=O)O)(C(=O)O)O1 (stereo partly specified) [Ixazomib Citrate (MLN9708)] | 2
44 | CCOC(=O)C1=C(C)NC(C)=C(C(=O)OC)C1c1cccc([N+](=O)[O-])c1 (stereo unspecified) [Nitrendipine] | -0.446
45 | O=C1c2ccccc2-c2n[nH]c3cccc1c23 | 0.378
46 | CNC(=O)c1ccc(N2C(=S)N(c3cnc(C#N)c(C(F)(F)F)c3)C(=O)C23CCC3)cc1F | -0.937
47 | CC(CN1c2ccccc2Sc2ccccc21)N(C)C (stereo unspecified) [Promethazine HCl] | -0.155
48 | CNC(=O)c1ccccc1Sc1ccc2c(/C=C/c3ccccn3)n[nH]c2c1 [Axitinib] | -2.85
49 | CCOc1cc(N2CCC(O)CC2)ccc1Nc1ncc2c(n1)N(C)c1ccccc1C(=O)N2C | 0.128
50 | S=C=Nc1cccc(NC(=S)NCCCCNC(=S)Nc2cccc(N=C=S)c2)c1 | -0.551
51 | CC[C@H](Nc1ncnc2[nH]cnc12)c1nc2cccc(F)c2c(=O)n1-c1ccccc1 [Idelalisib (CAL-101, GS-1101)] | 0.184
